Laboratory results reported in paper doi:10.1101/2025.10.08.681078 (bioRxiv, 2025).
No constants are given. Whether binding was seen depends on the method and setting. Some binding calls cover weakened binding; strength is not graded here. Tags and fused reporters may be left off the sequences shown.

How the values were obtained:
Flag-tagged mouse MLC1 = Flag-tagged mouse MLC1 (mouse, UniProt Q8VHK5); assay: oligomer bands on a western blot
Flag-tagged human MLC1 = Flag-tagged human MLC1 (human, UniProt Q15049); assay: oligomer bands on a western blot

| binding (Flag-tagged mouse MLC1) | binding (Flag-tagged human MLC1) | Binder |
| --- | --- | --- |
| binds |  | Flag-tagged mouse MLC1 (protein, UniProt Q8VHK5 1-382) MTREGQFREELGYDRMPTLERGRQDAGRQDPGSYTPDSKPKDLQLSKRLPPCFSYKTWVFSVLMGSCLLVTSGFSLYLGNVFPSEMDYLRCAAGSCIPSAIVSFAVGRRNVSAIPNFQILFVSTFAVTTTCLIWFGCKLILNPSAININFNLILLLLLELLMAATVIISARSSEEPCKKKKGSISDGSNILDEVTFPARVLKSYSVVEVIAGVSAVLGGVIALNVEEAVSGPHLSVTFFWILVACFPSAIASHVTAECPSKCLVEVLIAISSLTSPLLFTASGYLSFSVMRVVEIFKDYPPAIKSYDVLLLLLLLLLLLQGGLNTGTAIQCVSFKVSARLQAASWDPQSCPQERPAGEVVRGPLKEFDKEKAWRAVVVQMAQ |
|  | binds | Flag-tagged human MLC1 (protein, UniProt Q15049 1-377) MTQEPFREELAYDRMPTLERGRQDPASYAPDAKPSDLQLSKRLPPCFSHKTWVFSVLMGSCLLVTSGFSLYLGNVFPAEMDYLRCAAGSCIPSAIVSFTVSRRNANVIPNFQILFVSTFAVTTTCLIWFGCKLVLNPSAININFNLILLLLLELLMAATVIIAARSSEEDCKKKKGSMSDSANILDEVPFPARVLKSYSVVEVIAGISAVLGGIIALNVDDSVSGPHLSVTFFWILVACFPSAIASHVAAECPSKCLVEVLIAISSLTSPLLFTASGYLSFSIMRIVEMFKDYPPAIKPSYDVLLLLLLLVLLLQAGLNTGTAIQCVRFKVSARLQGASWDTQNGPQERLAGEVARSPLKEFDKEKAWRAVVVQMAQ |
